The text below walks through data of publication PMC7862700.

Sequences of proteins named here, by UniProt entry; tags and fusion partners are left off. A change or cut given only in a name is not applied to a line headed by its entry.
UniProt P32519: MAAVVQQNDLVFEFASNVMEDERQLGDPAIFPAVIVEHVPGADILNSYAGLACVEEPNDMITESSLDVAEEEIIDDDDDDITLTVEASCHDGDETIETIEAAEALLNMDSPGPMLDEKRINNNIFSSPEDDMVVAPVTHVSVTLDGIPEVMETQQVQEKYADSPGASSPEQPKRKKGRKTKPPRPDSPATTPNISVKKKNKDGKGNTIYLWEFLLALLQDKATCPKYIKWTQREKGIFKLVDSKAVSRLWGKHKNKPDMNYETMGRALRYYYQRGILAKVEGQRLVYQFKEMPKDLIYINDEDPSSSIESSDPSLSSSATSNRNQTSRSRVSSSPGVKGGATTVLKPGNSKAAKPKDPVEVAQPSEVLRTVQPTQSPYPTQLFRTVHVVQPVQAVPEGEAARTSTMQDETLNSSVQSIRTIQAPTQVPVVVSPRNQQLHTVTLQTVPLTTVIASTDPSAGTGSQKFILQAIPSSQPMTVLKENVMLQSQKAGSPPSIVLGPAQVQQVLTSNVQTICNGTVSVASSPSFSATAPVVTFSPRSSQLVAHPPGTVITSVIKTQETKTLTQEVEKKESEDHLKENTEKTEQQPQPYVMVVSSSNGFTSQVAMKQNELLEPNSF
UniProt P50549: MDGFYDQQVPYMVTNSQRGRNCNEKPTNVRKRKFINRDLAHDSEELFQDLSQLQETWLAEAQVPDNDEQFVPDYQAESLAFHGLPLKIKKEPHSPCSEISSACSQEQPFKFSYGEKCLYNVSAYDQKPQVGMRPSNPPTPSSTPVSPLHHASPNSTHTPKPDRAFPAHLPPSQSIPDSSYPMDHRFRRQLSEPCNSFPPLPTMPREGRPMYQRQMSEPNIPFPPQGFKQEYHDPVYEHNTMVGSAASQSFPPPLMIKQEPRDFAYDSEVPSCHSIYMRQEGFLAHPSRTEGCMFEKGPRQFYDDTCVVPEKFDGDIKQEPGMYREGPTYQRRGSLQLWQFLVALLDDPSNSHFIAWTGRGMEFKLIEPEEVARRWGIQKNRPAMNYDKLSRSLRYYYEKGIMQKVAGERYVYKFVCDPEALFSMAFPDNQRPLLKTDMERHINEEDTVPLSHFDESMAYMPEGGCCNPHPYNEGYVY

Holding throughout (assay): DAPPL (digital affinity profiling via proximity ligation, sequencing)
Common to all, as to settings: 10 mM Tris-HCl pH 7.5, 50 mM NaCl, 1 mM DTT, 4% glycerol, room temperature, 30 min; GST-TFs on glutathione beads, 16-mer random dsDNA library, 0.1% …; high values mean tight binding; double strand, one strand shown; scale: fold enrichment (6-mer frequency, TF over GST control)

For one experiment, the target named is T1, ERG (UniProt P11308).
T1 sequence: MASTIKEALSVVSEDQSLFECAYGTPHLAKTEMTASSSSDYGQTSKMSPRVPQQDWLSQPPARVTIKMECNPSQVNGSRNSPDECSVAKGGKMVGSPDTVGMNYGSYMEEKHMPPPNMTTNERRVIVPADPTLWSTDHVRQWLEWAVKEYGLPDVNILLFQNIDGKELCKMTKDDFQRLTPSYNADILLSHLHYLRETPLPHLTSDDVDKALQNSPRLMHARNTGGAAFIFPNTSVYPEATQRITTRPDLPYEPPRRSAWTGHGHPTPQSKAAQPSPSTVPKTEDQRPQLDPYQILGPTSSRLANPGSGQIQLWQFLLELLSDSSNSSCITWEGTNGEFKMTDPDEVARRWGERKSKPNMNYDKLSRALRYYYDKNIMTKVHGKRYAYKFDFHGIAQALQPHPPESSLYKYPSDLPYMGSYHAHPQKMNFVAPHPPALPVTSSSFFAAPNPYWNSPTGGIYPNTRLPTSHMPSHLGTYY

The next experiment concerns the target ELF1 (UniProt P32519).
The next experiment concerns the target T2, ELK4 (UniProt P28324-2).
T2 sequence: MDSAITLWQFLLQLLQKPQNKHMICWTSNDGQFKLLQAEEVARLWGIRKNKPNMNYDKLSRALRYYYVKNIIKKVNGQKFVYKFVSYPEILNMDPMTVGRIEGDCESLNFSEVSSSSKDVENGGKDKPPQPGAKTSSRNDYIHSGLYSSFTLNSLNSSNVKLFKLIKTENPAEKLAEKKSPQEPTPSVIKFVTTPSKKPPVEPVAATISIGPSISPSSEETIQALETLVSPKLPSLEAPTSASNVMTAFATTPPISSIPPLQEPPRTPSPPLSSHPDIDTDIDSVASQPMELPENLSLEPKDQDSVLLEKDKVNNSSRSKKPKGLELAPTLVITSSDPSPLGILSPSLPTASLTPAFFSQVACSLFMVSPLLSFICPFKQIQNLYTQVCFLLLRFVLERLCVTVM

The next experiment has as its target T3, ETV4 (UniProt P43268).
T3 sequence: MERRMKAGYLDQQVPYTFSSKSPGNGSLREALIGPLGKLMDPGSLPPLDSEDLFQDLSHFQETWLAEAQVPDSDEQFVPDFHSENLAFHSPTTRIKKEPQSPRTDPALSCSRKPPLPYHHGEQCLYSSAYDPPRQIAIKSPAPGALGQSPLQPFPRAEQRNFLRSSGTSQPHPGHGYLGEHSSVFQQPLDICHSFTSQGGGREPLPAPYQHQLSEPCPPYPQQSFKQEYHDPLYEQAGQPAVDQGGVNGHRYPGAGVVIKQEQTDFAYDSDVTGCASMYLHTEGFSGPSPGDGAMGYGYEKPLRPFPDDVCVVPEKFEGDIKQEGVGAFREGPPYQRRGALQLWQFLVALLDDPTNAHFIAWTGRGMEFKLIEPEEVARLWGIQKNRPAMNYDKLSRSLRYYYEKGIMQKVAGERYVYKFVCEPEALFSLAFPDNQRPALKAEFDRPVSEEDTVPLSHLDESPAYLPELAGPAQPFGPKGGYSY

The target in the next experiment is ETV1 (UniProt P50549).
A further experiment has as its target T4, ERF (UniProt P50548).
T4 sequence: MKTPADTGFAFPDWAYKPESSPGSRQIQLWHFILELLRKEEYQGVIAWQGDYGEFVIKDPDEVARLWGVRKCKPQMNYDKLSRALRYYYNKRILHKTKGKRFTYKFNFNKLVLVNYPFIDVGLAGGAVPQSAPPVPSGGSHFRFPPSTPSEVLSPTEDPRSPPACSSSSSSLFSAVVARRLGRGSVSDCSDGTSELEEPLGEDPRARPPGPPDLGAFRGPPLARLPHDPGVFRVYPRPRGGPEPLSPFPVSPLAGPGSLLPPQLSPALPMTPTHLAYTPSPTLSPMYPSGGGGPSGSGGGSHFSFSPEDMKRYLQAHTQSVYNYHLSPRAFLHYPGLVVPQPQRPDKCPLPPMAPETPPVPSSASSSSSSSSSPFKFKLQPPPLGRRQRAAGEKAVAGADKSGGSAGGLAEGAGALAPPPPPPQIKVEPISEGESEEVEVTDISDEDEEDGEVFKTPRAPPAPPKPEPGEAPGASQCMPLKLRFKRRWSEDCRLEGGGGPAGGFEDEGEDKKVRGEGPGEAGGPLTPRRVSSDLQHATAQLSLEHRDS

This is a selection; strong and weak results do not stand in their true shares. For part of these data: At the low end of the ranking, values are background and their order means little. Some of the results follow. For part of these data: The source does not settle which construct or isoform was used.

As to TGAAGT, the binding signal with ERG is 0.762; with ELF1 it was 0.736; with ELK4, 0.766; with ETV4 it was 0.735; with ETV1 it was 0.764; with ERF, 0.817.

Turning to GTCCGA, the binding signal with ERG stood at 0.902; in the experiment with ELF1, 0.896; with ELK4, 0.8; with ETV4, 0.87; with ETV1, 0.85; in the experiment with ERF, 0.879.

With GGGACA, the binding signal was 0.681 with ERG; 0.679 with ELF1; 0.658 with ELK4; 0.708 with ETV4; 0.692 with ETV1; 0.742 with ERF.

In the case of GTAAAG, the binding signal in the experiment with ERG turned out to be 0.896; with ELF1, 0.951; with ELK4, 0.906; with ETV4, 0.924; with ETV1 it was 0.964; with ERF it was 0.948.

With GGGTCG, the binding signal in the experiment with ERG is 0.614; in the experiment with ELF1, 0.604; with ELK4, 0.548; with ETV4, 0.622; in the experiment with ETV1, 0.593; in the experiment with ERF, 0.594.

With CAGGCT, the binding signal in the experiment with ERG was 0.79; with ELF1, 0.865; with ELK4 it was 0.848; with ETV4, 0.866; with ETV1, 0.82; with ERF, 0.832.

In the case of ACGGCG, the binding signal in the experiment with ERG is 0.839; in the experiment with ELF1 it was 0.889; with ELK4, 0.845; with ETV4, 0.818; with ETV1, 0.864; with ERF it was 0.804.

CCAGTG: the binding signal with ERG turned out to be 0.45; with ELF1, 0.478; in the experiment with ELK4 it was 0.431; with ETV4, 0.485; with ETV1, 0.419; with ERF, 0.475.

On to AGTCCA, for which the binding signal with ERG is 0.737; in the experiment with ELF1 it was 0.689; in the experiment with ELK4, 0.693; in the experiment with ETV4, 0.716; in the experiment with ETV1, 0.708; in the experiment with ERF, 0.614.

On to GTCGCA, for which the binding signal in the experiment with ERG came to 0.79; in the experiment with ELF1 it was 0.78; in the experiment with ELK4, 0.689; with ETV4, 0.703; with ETV1 it was 0.699; with ERF, 0.753.

With TCAGAG, the binding signal in the experiment with ERG is 0.76; with ELF1 it was 0.691; with ELK4, 0.774; in the experiment with ETV4, 0.745; with ETV1, 0.756; with ERF, 0.775.

GTCTGA: the binding signal in the experiment with ERG is 0.742; in the experiment with ELF1, 0.815; in the experiment with ELK4 it was 0.687; with ETV4, 0.829; with ETV1 it was 0.68; in the experiment with ERF it was 0.847.

Turning to TGAGGC, the binding signal with ERG turned out to be 0.435; in the experiment with ELF1, 0.501; in the experiment with ELK4, 0.56; in the experiment with ETV4, 0.474; with ETV1, 0.488; with ERF it was 0.531.

In the case of AGCCGC, the binding signal with ERG was 0.881; with ELF1 it was 0.895; with ELK4, 0.905; with ETV4, 0.902; in the experiment with ETV1 it was 0.842; with ERF, 0.958.

As for AGATTG, the binding signal was 0.844 in the experiment with ERG; 0.813 in the experiment with ELF1; 0.834 with ELK4; 0.794 in the experiment with ETV4; 0.865 with ETV1; 0.838 with ERF.

Take CACAGT: the binding signal amounted to 0.705 in the experiment with ERG; 0.793 with ELF1; 0.89 with ELK4; 0.683 in the experiment with ETV4; 0.735 with ETV1; 0.772 in the experiment with ERF.

With CCGTTG, the binding signal was 0.961 with ERG; 0.948 with ELF1; 0.905 with ELK4; 0.907 with ETV4; 0.827 in the experiment with ETV1; 0.94 with ERF.

As for TCGGTG, the binding signal with ERG was 0.496; with ELF1 it was 0.533; with ELK4, 0.62; with ETV4, 0.553; with ETV1, 0.567; with ERF, 0.591.

On to TGAGGG, for which the binding signal with ERG turned out to be 0.658; in the experiment with ELF1, 0.618; with ELK4, 0.718; in the experiment with ETV4, 0.633; with ETV1 it was 0.639; with ERF, 0.759.

CGGGGA: the binding signal in the experiment with ERG was found to be 0.437; with ELF1 it was 0.44; in the experiment with ELK4, 0.416; with ETV4, 0.457; with ETV1, 0.441; with ERF, 0.435.

As to AGTCAA, the binding signal with ERG was determined as 0.637; with ELF1 it was 0.628; with ELK4, 0.631; with ETV4 it was 0.593; with ETV1, 0.702; with ERF, 0.645.

As for TCAGGG, the binding signal with ERG worked out at 0.765; in the experiment with ELF1 it was 0.831; with ELK4, 0.838; with ETV4 it was 0.835; with ETV1, 0.777; with ERF, 0.899.

On to GTTAGA, for which the binding signal with ERG was found to be 0.729; with ELF1, 0.782; in the experiment with ELK4, 0.808; in the experiment with ETV4, 0.78; with ETV1, 0.727; in the experiment with ERF, 0.782.

Regarding GAGTAT, the binding signal with ERG was found to be 0.592; with ELF1, 0.607; in the experiment with ELK4 it was 0.586; with ETV4, 0.512; with ETV1, 0.576; with ERF it was 0.689.

On to GGTCAG, for which the binding signal is 0.512 with ERG; 0.539 in the experiment with ELF1; 0.52 in the experiment with ELK4; 0.551 in the experiment with ETV4; 0.551 with ETV1; 0.506 with ERF.

On to CGCGTG, for which the binding signal with ERG stood at 0.686; with ELF1 it was 0.659; in the experiment with ELK4, 0.746; with ETV4, 0.659; with ETV1, 0.721; with ERF it was 0.617.

With CGTGTT, the binding signal is 0.799 with ERG; 0.8 with ELF1; 0.969 with ELK4; 0.829 with ETV4; 0.879 with ETV1; 0.965 in the experiment with ERF.

In the case of AGCGTA, the binding signal in the experiment with ERG is 0.95; with ELF1 it was 0.918; in the experiment with ELK4 it was 0.889; with ETV4, 0.823; in the experiment with ETV1, 0.918; with ERF, 0.883.

Consider CCTGAG, for which the binding signal in the experiment with ERG was 0.801; with ELF1 it was 0.909; in the experiment with ELK4 it was 0.785; in the experiment with ETV4, 0.851; with ETV1 it was 0.818; with ERF, 0.778.

For ATGAGA, the binding signal worked out at 0.846 with ERG; 0.799 in the experiment with ELF1; 0.953 in the experiment with ELK4; 0.776 with ETV4; 0.824 with ETV1; 0.922 in the experiment with ERF.
